Experimental data: patent US20250074896A1, “ARYLTETRAHYDROPYRIDAZINE DERIVATIVE OR SALT THEREOF AND INSECTICIDAL AGENT CONTAINING THE COMPOUND AND METHOD FOR USING SAME” (NIHON NOHYAKU CO., LTD., priority 2021, published 2025)
Some of these results come from one statement about several compounds together.

Columns and labels:
Type in all cases: in vivo
[1] = test system: Diamondback moth (Plutella xylostella); assay: Insecticidal test on diamondback moth (dip treatment of Chinese cabbage seedlings with laid eggs); details: dip about 30 seconds, 6 days after treatment, 25° C.
[2] = test system: Small Brown Planthopper (Laodelphax striatellus); assay: Insecticidal test on small brown planthopper (dipped rice seedlings, 3rd-instar larvae); details: rice seedlings dipped 30 seconds, 8 days after inoculation
[3] = test system: Western Flower Thrips (Frankliniella occidentalis); assay: Insecticidal test on western flower thrips (kidney bean leaf pieces, hatched larvae); details: 4 days after the treatment

O=C(Nc1ccc(F)cc1)C1=C(O)CN(c2ccc(Br)nn2)NC1=O [1-144]
A (the mortality rate is 100%): insecticidal efficacy (corrected mortality rate) against diamondback moth ([1]; 500 ppm) | insecticidal efficacy (corrected mortality rate) against small brown planthopper ([2]; 500 ppm) | insecticidal efficacy (corrected mortality rate) against western flower thrips ([3]; 500 ppm)

O=C(Nc1ccc(F)c(F)c1)C1=C(O)CN(c2ccc(Br)nc2)NC1=O [1-71]
A (the mortality rate is 100%): insecticidal efficacy (corrected mortality rate) against diamondback moth ([1]; 500 ppm) | insecticidal efficacy (corrected mortality rate) against small brown planthopper ([2]; 500 ppm) | insecticidal efficacy (corrected mortality rate) against western flower thrips ([3]; 500 ppm)

O=C(Nc1ccc(F)c(F)c1)C1=C(O)CN(c2ccc(C(F)(F)F)cc2)NC1=O [1-13]
A (the mortality rate is 100%): insecticidal efficacy (corrected mortality rate) against diamondback moth ([1]; 50 ppm) | insecticidal efficacy (corrected mortality rate) against diamondback moth ([1]; 500 ppm) | insecticidal efficacy (corrected mortality rate) against small brown planthopper ([2]; 50 ppm) | insecticidal efficacy (corrected mortality rate) against small brown planthopper ([2]; 500 ppm) | insecticidal efficacy (corrected mortality rate) against western flower thrips ([3]; 50 ppm) | insecticidal efficacy (corrected mortality rate) against western flower thrips ([3]; 500 ppm)

O=C(Nc1ccc(F)cc1)C1=C(O)CN(c2nc3ccccc3o2)NC1=O [1-161]
A (the mortality rate is 100%): insecticidal efficacy (corrected mortality rate) against diamondback moth ([1]; 50 ppm) | insecticidal efficacy (corrected mortality rate) against diamondback moth ([1]; 500 ppm) | insecticidal efficacy (corrected mortality rate) against small brown planthopper ([2]; 500 ppm) | insecticidal efficacy (corrected mortality rate) against western flower thrips ([3]; 500 ppm)

Cc1cc(N2CC(O)=C(C(=O)Nc3cc(F)cc(F)c3)C(=O)N2)cnc1C#N [1-324]
A (the mortality rate is 100%): insecticidal efficacy (corrected mortality rate) against diamondback moth ([1]; 50 ppm) | insecticidal efficacy (corrected mortality rate) against diamondback moth ([1]; 500 ppm) | insecticidal efficacy (corrected mortality rate) against small brown planthopper ([2]; 50 ppm) | insecticidal efficacy (corrected mortality rate) against small brown planthopper ([2]; 500 ppm) | insecticidal efficacy (corrected mortality rate) against western flower thrips ([3]; 50 ppm) | insecticidal efficacy (corrected mortality rate) against western flower thrips ([3]; 500 ppm)

O=C(Nc1cccc(Br)n1)C1=C(O)CN(c2ccc(Br)nc2)NC1=O [1-267]
A (the mortality rate is 100%): insecticidal efficacy (corrected mortality rate) against diamondback moth ([1]; 50 ppm) | insecticidal efficacy (corrected mortality rate) against diamondback moth ([1]; 500 ppm) | insecticidal efficacy (corrected mortality rate) against small brown planthopper ([2]; 500 ppm) | insecticidal efficacy (corrected mortality rate) against western flower thrips ([3]; 500 ppm)

COC(=O)N1C(=O)C(C(=O)Nc2ccc(Cl)nc2)=C(O)CN1c1cnc(C#N)c(Cl)c1 [3-464]
A (the mortality rate is 100%): insecticidal efficacy (corrected mortality rate) against diamondback moth ([1]; 50 ppm) | insecticidal efficacy (corrected mortality rate) against diamondback moth ([1]; 500 ppm) | insecticidal efficacy (corrected mortality rate) against small brown planthopper ([2]; 50 ppm) | insecticidal efficacy (corrected mortality rate) against small brown planthopper ([2]; 500 ppm) | insecticidal efficacy (corrected mortality rate) against western flower thrips ([3]; 50 ppm) | insecticidal efficacy (corrected mortality rate) against western flower thrips ([3]; 500 ppm)

COC(=O)N1C(=O)C(C(=O)Nc2ccc(F)cc2)=C(O)CN1c1cnc(C#N)c(Cl)c1 [3-204]
A (the mortality rate is 100%): insecticidal efficacy (corrected mortality rate) against diamondback moth ([1]; 50 ppm) | insecticidal efficacy (corrected mortality rate) against diamondback moth ([1]; 500 ppm) | insecticidal efficacy (corrected mortality rate) against small brown planthopper ([2]; 50 ppm) | insecticidal efficacy (corrected mortality rate) against small brown planthopper ([2]; 500 ppm) | insecticidal efficacy (corrected mortality rate) against western flower thrips ([3]; 50 ppm) | insecticidal efficacy (corrected mortality rate) against western flower thrips ([3]; 500 ppm)

COC(=O)N1C(=O)C(C(=O)Nc2ccc(F)cc2)=C(O)CN1c1cncc(OC)c1C#N [3-504]
A (the mortality rate is 100%): insecticidal efficacy (corrected mortality rate) against diamondback moth ([1]; 500 ppm) | insecticidal efficacy (corrected mortality rate) against small brown planthopper ([2]; 50 ppm) | insecticidal efficacy (corrected mortality rate) against small brown planthopper ([2]; 500 ppm) | insecticidal efficacy (corrected mortality rate) against western flower thrips ([3]; 50 ppm) | insecticidal efficacy (corrected mortality rate) against western flower thrips ([3]; 500 ppm)

COc1cc(N2CC(O)=C(C(=O)Nc3ccc(F)cn3)C(=O)N2)ccc1C#N [1-35]
A (the mortality rate is 100%): insecticidal efficacy (corrected mortality rate) against diamondback moth ([1]; 500 ppm) | insecticidal efficacy (corrected mortality rate) against small brown planthopper ([2]; 50 ppm) | insecticidal efficacy (corrected mortality rate) against small brown planthopper ([2]; 500 ppm) | insecticidal efficacy (corrected mortality rate) against western flower thrips ([3]; 500 ppm)

COc1cccc(NC(=O)C2=C(O)CN(c3cnc(C#N)c(Cl)c3)NC2=O)c1 [1-194]
A (the mortality rate is 100%): insecticidal efficacy (corrected mortality rate) against diamondback moth ([1]; 500 ppm) | insecticidal efficacy (corrected mortality rate) against small brown planthopper ([2]; 500 ppm) | insecticidal efficacy (corrected mortality rate) against western flower thrips ([3]; 50 ppm) | insecticidal efficacy (corrected mortality rate) against western flower thrips ([3]; 500 ppm)

N#Cc1ccc(N2CC(O)=C(C(=O)Nc3ccc(F)cc3)C(=O)N2)cc1F [1-27]
A (the mortality rate is 100%): insecticidal efficacy (corrected mortality rate) against diamondback moth ([1]; 500 ppm) | insecticidal efficacy (corrected mortality rate) against small brown planthopper ([2]; 500 ppm) | insecticidal efficacy (corrected mortality rate) against western flower thrips ([3]; 500 ppm)

COc1ccc(NC(=O)C2=C(O)CN(c3ccc(C#N)c(F)c3)NC2=O)cn1 [1-11]
A (the mortality rate is 100%): insecticidal efficacy (corrected mortality rate) against diamondback moth ([1]; 50 ppm) | insecticidal efficacy (corrected mortality rate) against diamondback moth ([1]; 500 ppm) | insecticidal efficacy (corrected mortality rate) against small brown planthopper ([2]; 50 ppm) | insecticidal efficacy (corrected mortality rate) against small brown planthopper ([2]; 500 ppm) | insecticidal efficacy (corrected mortality rate) against western flower thrips ([3]; 50 ppm) | insecticidal efficacy (corrected mortality rate) against western flower thrips ([3]; 500 ppm)

COC(=O)N1C(=O)C(C(=O)Nc2ccc(F)nc2)=C(O)CN1c1ccc(C#N)c(F)c1 [3-211]
A (the mortality rate is 100%): insecticidal efficacy (corrected mortality rate) against diamondback moth ([1]; 500 ppm) | insecticidal efficacy (corrected mortality rate) against small brown planthopper ([2]; 50 ppm) | insecticidal efficacy (corrected mortality rate) against small brown planthopper ([2]; 500 ppm) | insecticidal efficacy (corrected mortality rate) against western flower thrips ([3]; 50 ppm) | insecticidal efficacy (corrected mortality rate) against western flower thrips ([3]; 500 ppm)

Cc1cccc(NC(=O)C2=C(O)CN(c3ccc(C(F)(F)F)nc3)NC2=O)n1 [1-59]
A (the mortality rate is 100%): insecticidal efficacy (corrected mortality rate) against diamondback moth ([1]; 500 ppm) | insecticidal efficacy (corrected mortality rate) against small brown planthopper ([2]; 500 ppm) | insecticidal efficacy (corrected mortality rate) against western flower thrips ([3]; 500 ppm)

N#Cc1ccc(N2CC(O)=C(C(=O)Nc3ccc(F)cn3)C(=O)N2)cc1Cl [1-167]
A (the mortality rate is 100%): insecticidal efficacy (corrected mortality rate) against diamondback moth ([1]; 50 ppm) | insecticidal efficacy (corrected mortality rate) against diamondback moth ([1]; 500 ppm) | insecticidal efficacy (corrected mortality rate) against small brown planthopper ([2]; 50 ppm) | insecticidal efficacy (corrected mortality rate) against small brown planthopper ([2]; 500 ppm) | insecticidal efficacy (corrected mortality rate) against western flower thrips ([3]; 50 ppm) | insecticidal efficacy (corrected mortality rate) against western flower thrips ([3]; 500 ppm)
